Data taken from publication PMC5024437.
Results are given in words; binding and its absence hold for the method and conditions named. Binding seen in cells or lysates may run through a third protein. Some entries that bind do so weakly or less than the wild type.

The chains behind the UniProt entries cited, without tags or fusion partners.
UniProt Q12929: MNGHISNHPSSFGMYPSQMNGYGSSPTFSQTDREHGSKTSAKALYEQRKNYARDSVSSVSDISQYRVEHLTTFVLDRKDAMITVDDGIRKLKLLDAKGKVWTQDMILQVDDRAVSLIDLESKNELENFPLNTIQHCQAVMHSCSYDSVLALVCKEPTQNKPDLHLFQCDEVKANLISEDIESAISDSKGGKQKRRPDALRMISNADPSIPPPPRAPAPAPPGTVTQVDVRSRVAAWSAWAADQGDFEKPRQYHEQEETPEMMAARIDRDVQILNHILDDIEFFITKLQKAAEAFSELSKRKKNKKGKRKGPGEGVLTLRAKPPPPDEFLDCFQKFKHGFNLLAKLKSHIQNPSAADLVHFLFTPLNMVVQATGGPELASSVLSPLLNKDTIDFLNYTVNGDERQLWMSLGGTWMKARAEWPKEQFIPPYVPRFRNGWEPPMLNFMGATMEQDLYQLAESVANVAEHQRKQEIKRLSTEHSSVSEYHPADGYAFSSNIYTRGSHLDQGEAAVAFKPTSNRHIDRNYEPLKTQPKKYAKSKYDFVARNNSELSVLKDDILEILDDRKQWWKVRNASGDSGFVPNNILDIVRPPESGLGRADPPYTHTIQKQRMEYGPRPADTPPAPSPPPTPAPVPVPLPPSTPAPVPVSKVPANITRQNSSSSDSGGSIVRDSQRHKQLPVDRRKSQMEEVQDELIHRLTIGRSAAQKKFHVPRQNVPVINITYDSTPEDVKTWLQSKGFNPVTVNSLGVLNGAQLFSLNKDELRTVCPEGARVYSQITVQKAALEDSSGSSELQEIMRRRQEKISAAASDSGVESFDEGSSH

Molecular target: Cbl E3 ubiquitin ligase (human (endogenous in A549)) (UniProt P22681)
Assay: co-IP; A549 and A549 + ITSN-1s (stable myc-ITSN-1s) cell lysates, 500 ug total protein, lysis buffer 50 mM Tris-HCl pH 8.0, 150 mM NaCl, 1 % NP-40; IP with 3 ug mSos1 or Cbl Ab and protein A/G, WB with Rac1 or Eps8 Ab; densitometry as percentage of control

binding: binds
Substance: Eps8 (from UniProt Q12929 1-822)
